This is an account of results in patent US20240279309A1.

The chains behind the UniProt entries cited, without tags or fusion partners. Where a name states a change or a piece, a line headed by the entry shows the natural chain unless it says otherwise.
UniProt P25942: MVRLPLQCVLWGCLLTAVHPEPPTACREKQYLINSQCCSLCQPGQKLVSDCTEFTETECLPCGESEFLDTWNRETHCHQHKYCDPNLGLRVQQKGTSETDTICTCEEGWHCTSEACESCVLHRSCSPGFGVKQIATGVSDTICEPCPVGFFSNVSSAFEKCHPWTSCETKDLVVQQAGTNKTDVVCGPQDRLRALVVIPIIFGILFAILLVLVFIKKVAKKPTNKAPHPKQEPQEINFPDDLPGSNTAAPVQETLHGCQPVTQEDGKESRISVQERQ

The target of test [1] is biotinylated human CD40 (recombinant human CD40 target) (human) (UniProt P25942). The test is described as follows: crude extract HTRF, 1.25 nM biotinylated human CD40. For orientation: In TR-FRET formats the signal depends on donor and acceptor labels being close together.
Test [2] has the same target. The test is described as follows: crude extract HTRF on recombinant human CD40.
The target of test [3] is human tumor necrosis factor receptor superfamily member 5 (hCD40), recombinant, expressed in Hi5 cells (human) (UniProt P25942). The experiment in a line: X-ray crystallography of the complex (figure legend).
For test [4] the target is unchanged. The experiment in a line: X-ray crystallography of the complex, 2.29 A.

Numbering of substitutions follows the chain as printed. These are yes or no findings as the source states them, for the method shown. Some binding calls cover weakened binding; strength is not graded here.

B1: ankyrin repeat domain of SEQ ID NO: 30 (designed binder)
chain: MRGSHHHHHHGSDLGHKLLYAAYTGQDDEVRILLAAGADVNAKDSVGYTPLHYAAHAGHLEIVEVLLKAGADVNAKDVFGRTPLHSAALHGHLEIVEVLLKAGADVNAQDTRGRTPADLAAILGHEDIAEVLQKAA
For B1, the binding entry in test [1] and in test [2] was “binds” in each case.

B2: ankyrin repeat domain of SEQ ID NO: 16 (designed binder)
chain: B1 chain with H16F, Y20A, Y23F, T24E, S45K
With B2, the binding result in test [1] and in test [2] was “binds” in each case.

B3: ankyrin repeat domain of SEQ ID NO: 31 (designed binder)
chain: MRGSHHHHHHGSDLGKKLLWAAAAGQLDEVRELLKAGADVNAKDHVGYTPLHIAALAGHLEIVEVLLKAGEDVNAKDHKGRTPLHVAAAVGHLEIVEVLLKAGADVNAKDQQGVTPLHIAAITGHLEIVEVLLKAGADVNAQDKSGKTPADLAARAGHQDIAEVLQKAA
In the case of B3, the binding result in test [1] and in test [2] was “binds” throughout.

B4: ankyrin repeat domain of SEQ ID NO: 19 (designed binder)
chain: MRGSHHHHHHGSDLGKKLLQAARAGQLDEVRELLKAGADVNAKDTIGWTPLHLAAYRGHLEIVEVLLKAGADVNAKDEHGRTPLHLAAHAGHLEIVEVLLKAGADVNAKDAWGHTPLHIAARTGHLEIVEVLLKAGADVNAQDKSGKTPADLAARAGHQDIAEVLQKAA
Take B4: the binding entry in test [1] and in test [2] was “binds” in each case.

B5: ankyrin repeat domain of SEQ ID NO: 26 (designed binder)
chain: MRGSHHHHHHGSDLGKKLLQAARAGQLDEVRELLKAGADVNAKDTYGRTPLHIAAQYGHLEIVEVLLKAGADVNAKDHRGVTPLHVAAYKGHLEIVEVLLKAGADVNAKDVTGVTPLHVAAFKGHLEIVEVLLKAGADVNAQDKSGKTPADLTARAGHQDIAEVLQKAA
As to B5, the binding result in test [1] and in test [2] was “binds” each time.

B6: ankyrin repeat domain of SEQ ID NO: 33 (designed binder)
chain: B5 chain with T153A
As for B6, the binding entry in test [1] and in test [2] was “binds” throughout.

B7: ankyrin repeat domain of SEQ ID NO: 34 (designed binder)
chain: B5 chain with T45E, Y46W, I53L, T153A
As to B7, the binding result in test [1] and in test [2] was “binds” each time.

B8: ankyrin repeat domain of SEQ ID NO: 25 (designed binder)
chain: MRGSHHHHHHGSDLGKKLLQATRAGQLDEVRELLKAGADVNAKDEFGRTPLHLAAQYGHLEIVEVLLKAGADVNAKDAHGVTPLHVAAFRGHLEIVEVLLKAGADVNAKDRSGLTPLHLAAWQGHLEIVEVLLKAGADVNAQDKSGKTPADLAARAGHQDIAEVLQKAA
For the molecule B8, the binding entry in test [1] and in test [2] was “binds” each time.

B9: ankyrin repeat domain of SEQ ID NO: 23 (designed binder)
chain: MRGSHHHHHHGSDLGKKLLQAVRAGQLDEVRELLKAGADVNAKDTWGFTPLHIAAESGHLEIVEVLLKAGADVNAKDVQGRTPLHIAAHSGHLEIVEVLLKAGADVNAKDFRGWTPLHLAAWSGHLEIVEVLLKAGADVNAQDKSGKTPADLAARAGHQDIAEVLQKAA
Consider B9, for which the binding entry in test [1] and in test [2] was “binds” each time.

B10: ankyrin repeat domain of SEQ ID NO: 35 (designed binder)
chain: B9 chain with V22A, A55T
For B10, the binding result in test [1] and in test [2] was “binds” throughout.

B11: ankyrin repeat domain of SEQ ID NO: 24 (designed binder)
chain: B9 chain with V22A, E130G
Turning to B11, the binding entry in test [1] and in test [2] was “binds” each time.

B12: ankyrin repeat domain of SEQ ID NO: 32 (designed binder)
chain: B9 chain with V22A, A102V
B12: the binding result in test [1] and in test [2] was “binds” each time.

B13: DARPin® protein #29 (SEQ ID NO: 29) (designed binder)
chain: B9 chain with V22A, V131I
For B13, the binding result in test [1], in test [2], in test [3] and in test [4] was “binds” in each case.

B14: ankyrin repeat domain of SEQ ID NO: 28 (designed binder)
chain: MRGSHHHHHHGSALGKKLLQAARAGQLDEVRELLKAGADVNAKDQEGRTPLHLAARSGHLEIVEVLLKAGADVNAKDTFGITPLHLAALPRSPEIVEVLLKAGADVNAKDQFGRTPLHIAAQSGHLEIVEVLLKAGADVNAQDKSGKTPADLAARAGHQDIAEVLQKAA
B14: the binding entry in test [1] and in test [2] was “binds” throughout.

B15: ankyrin repeat domain of SEQ ID NO: 27 (designed binder)
chain: MRGSHHHHHHGSDLGYKLLWAAYAGQDDEVRILLVAGADVNAKDSYGRTPLHYAANAGHLEIVEVLLKAGADVNAKDIQGETPLHHAARKGHLEIVEVLLKAGADVNAQDKTGDTPADLAAFVGHEDIAEVLQKAA
As for B15, the binding result in test [1] and in test [2] was “binds” throughout.

B16: ankyrin repeat domain of SEQ ID NO: 17 (designed binder)
chain: MRGSHHHHHHGSDLGKKLLQAARAGQLDEVRELLKAGADVNAKDSEGSTPLHLAALKGHLEIVEVLLKAGADVNAKDWQGQTPLHLAAFEGHLEIVEVLLKAGADVNAKDRWGETPLHIAAKHGHLEIVEVLLKAGADVNAQDKSGKTPADLAARAGHRDIAEVLQKAA
As for B16, the binding entry in test [1] and in test [2] was “binds” each time.

B17: ankyrin repeat domain of SEQ ID NO: 18 (designed binder)
chain: MRGSHHHHHHGSDLGKKLLQAARAGQLDEVRILLATGADVNAKDEIGYTPLHWAAYEGHLEIVEVLLKAGADVNAKDEHGRTPLHLAAYKGHLEIVEVLLKAGADVNAKDSWGRTPLHIAARAGHLEIVEVLLKSGADVNAQDKSGKTPADLAARAGHQDIAEVLQKAA
B17: the binding result in test [1] and in test [2] was “binds” throughout.

B18: ankyrin repeat domain of SEQ ID NO: 20 (designed binder)
chain: B17 chain with A24V, I32E, A35K, T36A, E45Q, I46L, Y48W, W53L, H79K
As for B18, the binding result in test [1] and in test [2] was “binds” throughout.

B19: ankyrin repeat domain of SEQ ID NO: 21 (designed binder)
chain: MRGSHHHHHHGSDLGKKLLQAARAGQLDEVRELLKAGADVNAKDVWGWTPLHLAAFEGHLEIVEVLLKAGADVNAKDHHGRTPLHLAAQYGHLEIVEVLLKAGADVNAKDRYGQTPLHVAAEHGHLEIVEVLLKAGADVNAQDKSGKTPADLAARAGHQDIAEVLQKAA
Regarding B19, the binding result in test [1] and in test [2] was “binds” each time.

B20: ankyrin repeat domain of SEQ ID NO: 22 (designed binder)
chain: MRGSHHHHHHGSDLGKKLLQAARAGQLDEVRELLKAGADVNAKDEFGQTPLHIAAKSGHLEIVEVLLKAGADVNAKDVYGRTPLHLAAQYGHLEIVEVLLKAGADVNAKDTQGVTPLHVAAFKGHLEIVEVLLKAGADVNAQDKSGKTPADLAARAGHQDIAEVLQKAA
B20: the binding entry in test [1] and in test [2] was “binds” throughout.
